Test results taken from patent publication US20260266848A1, “COMPOSITIONS AND METHODS FOR DIAGNOSING AND TREATING DYSTONIA” (Duke University, priority 2023, published 2026).

B1: NEK9 (protein, UniProt Q8TD19 2-979, looked up)
Serine/threonine-protein …: SVLGEYERHCDSINSDFGSESGGCGDSSPGPSASQGPRAGGGAAEQEELHYIPIRVLGRGAFGEATLYRRTEDDSLVVWKEVDLTRLSEKERRDALNEIVILALLQHDNIIAYYNHFMDNTTLLIELEYCNGGNLYDKILRQKDKLFEEEMVVWYLFQIVSAVSCIHKAGILHRDIKTLNIFLTKANLIKLGDYGLAKKLNSEYSMAETLVGTPYYMSPELCQGVKYNFKSDIWAVGCVIFELLTLKRTFDATNPLNLCVKIVQGIRAMEVDSSQYSLELIQMVHSCLDQDPEQRPTADELLDRPLLRKRRREMEEKVTLLNAPTKRPRSSTVTEAPIAVVTSRTSEVYVWGGGKSTPQKLDVIKSGCSARQVCAGNTHFAVVTVEKELYTWVNMQGGTKLHGQLGHGDKASYRQPKHVEKLQGKAIRQVSCGDDFTVCVTDEGQLYAFGSDYYGCMGVDKVAGPEVLEPMQLNFFLSNPVEQVSCGDNHVVVLTRNKEVYSWGCGEYGRLGLDSEEDYYTPQKVDVPKALIIVAVQCGCDGTFLLTQSGKVLACGLNEFNKLGLNQCMSGIINHEAYHEVPYTTSFTLAKQLSFYKIRTIAPGKTHTAAIDERGRLLTFGCNKCGQLGVGNYKKRLGINLLGGPLGGKQVIRVSCGDEFTIAATDDNHIFAWGNGGNGRLAMTPTERPHGSDICTSWPRPIFGSLHHVPDLSCRGWHTILIVEKVLNSKTIRSNSSGLSIGTVFQSSSPGGGGGGGGGEEEDSQQESETPDPSGGFRGTMEADRGMEGLISPTEAMGNSNGASSSCPGWLRKELENAEFIPMPDSPSPLSAAFSESEKDTLPYEELQGLKVASEAPLEHKPQVEASSPRLNPAVTCAGKGTPLTPPACACSSLQVEVERLQGLVLKCLAEQQKLQQENLQIFTQLQKLNKKLEGGQQVGMHSKGTQTAKEEMEMDPKPDLDSDSWCLLGTDSCRPSL
B2: SEC31A (protein, UniProt O94979 1-1220, looked up)
Protein transport protein …: MKLKEVDRTAMQAWSPAQNHPIYLATGTSAQQLDATFSTNASLEIFELDLSDPSLDMKSCATFSSSHRYHKLIWGPYKMDSKGDVSGVLIAGGENGNIILYDPSKIIAGDKEVVIAQNDKHTGPVRALDVNIFQTNLVASGANESEIYIWDLNNFATPMTPGAKTQPPEDISCIAWNRQVQHILASASPSGRATVWDLRKNEPIIKVSDHSNRMHCSGLAWHPDVATQMVLASEDDRLPVIQMWDLRFASSPLRVLENHARGILAIAWSMADPELLLSCGKDAKILCSNPNTGEVLYELPTNTQWCFDIQWCPRNPAVLSAASFDGRISVYSIMGGSTDGLRQKQVDKLSSSFGNLDPFGTGQPLPPLQIPQQTAQHSIVLPLKKPPKWIRRPVGASFSFGGKLVTFENVRMPSHQGAEQQQQQHHVFISQVVTEKEFLSRSDQLQQAVQSQGFINYCQKKIDASQTEFEKNVWSFLKVNFEDDSRGKYLELLGYRKEDLGKKIALALNKVDGANVALKDSDQVAQSDGEESPAAEEQLLGEHIKEEKEESEFLPSSGGTFNISVSGDIDGLITQALLTGNFESAVDLCLHDNRMADAIILAIAGGQELLARTQKKYFAKSQSKITRLITAVVMKNWKEIVESCDLKNWREALAAVLTYAKPDEFSALCDLLGTRLENEGDSLLQTQACLCYICAGNVEKLVACWTKAQDGSHPLSLQDLIEKVVILRKAVQLTQAMDTSTVGVLLAAKMSQYANLLAAQGSIAAALAFLPDNTNQPNIMQLRDRLCRAQGEPVAGHESPKIPYEKQQLPKGRPGPVAGHHQMPRVQTQQYYPHGENPPPPGFIMHGNVNPNAAGQLPTSPGHMHTQVPPYPQPQPYQPAQPYPFGTGGSAMYRPQQPVAPPTSNAYPNTPYISSASSYTGQSQLYAAQHQASSPTSSPATSFPPPPSSGASFQHGGPGAPPSSSAYALPPGTTGTLPAASELPASQRTGPQNGWNDPPALNRVPKKKKMPENFMPPVPITSPIMNPLGDPQSQMLQQQPSAPVPLSSQSSFPQPHLPGGQPFHGVQQPLGQTGMPPSFSKPNIEGAPGAPIGNTFQHVQSLPTKKITKKPIPDEHLILKTTFEDLIQRCLSSATDPQTKRKLDDASKRLEFLYDKLREQTLSPTITSGLHNIARSIETRNYSEGLTMHTHIVSTSNFSETSAFMPVLKVVLTQANKLGV
B3: C16orf86 (protein, UniProt Q6ZW13 1-317, looked up)
Uncharacterized protein …: MASAGAERRPGVQEATVVGQGQLTEEPGSAQTSECPVAGDQFLVPAHEARGTQSEDQRPAGAASESELQEEGPKLGEERPKPHAGALEERGPRPVVSIVRPRHGPKRKPVKSLSLPGLRAHLKAEAELPPKLPLQEEEPEDSQSEPSPSAKQHKKAKKRKSLGAPVLHAVASMVSAPLETLRLERKAQRLRPLYQYVNYCNPELNQAGKGDGEAEVEAEAELAPVPEEGGVEQLQALLPLAGELGPGLALPCPSPLVTPTHALAPLGEEAGEEPGGLPSLGVSDHKAEVDKSTQVDIDKMLSVCTAPLVPPLSPQYK
B4: WDR26 (protein, UniProt Q9H7D7 1-661, looked up)
WD repeat-containing protein …: MQANGAGGGGGGGGGGGGGGGGGGGQGQTPELACLSAQNGESSPSSSSSAGDLAHANGLLPSAPSAASNNSNSLNVNNGVPGGAAAASSATVAAASATTAASSSLATPELGSSLKKKKRLSQSDEDVIRLIGQHLNGLGLNQTVDLLMQESGCRLEHPSATKFRNHVMEGDWDKAENDLNELKPLVHSPHAIVVRGALEISQTLLGIIVRMKFLLLQQKYLEYLEDGKVLEALQVLRCELTPLKYNTERIHVLSGYLMCSHAEDLRAKAEWEGKGTASRSKLLDKLQTYLPPSVMLPPRRLQTLLRQAVELQRDRCLYHNTKLDNNLDSVSLLIDHVCSRRQFPCYTQQILTEHCNEVWFCKFSNDGTKLATGSKDTTVIIWQVDPDTHLLKLLKTLEGHAYGVSYIAWSPDDNYLVACGPDDCSELWLWNVQTGELRTKMSQSHEDSLTSVAWNPDGKRFVTGGQRGQFYQCDLDGNLLDSWEGVRVQCLWCLSDGKTVLASDTHQRIRGYNFEDLTDRNIVQEDHPIMSFTISKNGRLALLNVATQGVHLWDLQDRVLVRKYQGVTQGFYTIHSCFGGHNEDFIASGSEDHKVYIWHKRSELPIAELTGHTRTVNCVSWNPQIPSMMASASDDGTVRIWGPAPFIDHQNIEEECSSMDS
B5: TFB1M (protein, UniProt Q8WVM0 28-346, looked up)
Dimethyladenosine transferase …: QAAKQLSQNFLLDLRLTDKIVRKAGNLTNAYVYEVGPGPGGITRSILNADVAELLVVEKDTRFIPGLQMLSDAAPGKLRIVHGDVLTFKVEKAFSESLKRPWEDDPPNVHIIGNLPFSVSTPLIIKWLENISCRDGPFVYGRTQMTLTFQKEVAERLAANTGSKQRSRLSVMAQYLCNVRHIFTIPGQAFVPKPEVDVGVVHFTPLIQPKIEQPFKLVEKVVQNVFQFRRKYCHRGLRMLFPEAQRLESTGRLLELADIDPTLRPRQLSISHFKSLCDVYRKMCDEDPQLFAYNFREELKRRKSKNEEKEEDDAENYRL

Test system: DYT1 patient plasma derived EVs
Test: Plasma-derived EV proteomics (ExoQuick ULTRA, DIA LC/MS/MS), DYT1 vs Healthy Controls
Parameters: species or system human
Conditions: for Mean DYT1 / Mean HC: protein abundance; for Mean DYT1: DYT1 patients; for Mean HC: healthy controls (HC); for Log2_FC: protein level, human patient derived EVs by genotype
How it was run: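 Plasma EVs enriched with ExoQuick ULTRA; 500 ng per sample run on EvoSep One UPLC (SPD30 gradient, ~5–30% acetonitrile/0.1% formic acid, 50 C) coupled to Orbitrap Astral. DIA mode: full MS r=240,000, m/z 380-980; 4 m/z fixed windows, HCD 27%.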

Row | Molecule | Mean DYT1 | Mean HC | Directionality (Hs. Plasma EVs (DYT1/WT)) | Log2_FC (Hs. Plasma EVs (DYT1/WT)) | Hs. Plasma EVs (DYT1/WT) (directionality of protein change, human plasma derived EVs, DYT1 vs WT(HC))
1 | B1 | 11.764 | 12.35 |  |  | 
2 | B2 | 8.231 | 9.36 | DOWN | -1.128 | DOWN
3 | B3 | 10.022 | 8.57 |  |  | 
4 | B4 | 5.387 | 4.70 |  | 0.6824 | 
5 | B5 | 7.004 | 5.26 |  |  | 
